# Library screening results

The values are deposited in ChEMBL (CHEMBL3988442, “University of Dundee, Small-Polar-MMV Screening Library” (2021)).

A: 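Assay on Mycobacterium tuberculosis, filed only as a heat shock assay from Cornell; the read-out is not stated. The concentration is filed as 10 mM, unlikely as a test dose, so the dose is not known. Higher reads as stronger inhibition (inferred: compounds with an IC50 in retests scored well above the rest). Size under these conditions: about 69,000 compounds, about 930 of them at 50% or above in at least one test.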
B: 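Whole-cell assay for inhibitors of Mycobacterium tuberculosis growth, labelled Cornell in the record; the read-out is not stated. The concentration is filed as 10 mM, unlikely as a test dose, so the dose is not known. The record gives no direction; compounds strong in two other growth screens of this library score well above the rest, so higher reads as stronger inhibition. About 53,000 compounds were tested under these conditions; 1.7% (about 900) showed 50% or more at least once.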

Results are given as percent effect.
The record does not define 0% and 100%; most values in the screen are far below 50% and negative numbers occur (in some assays of this library far below -100).
Compounds were drawn at random from those tested, without regard to their results.
A dash means the value is not listed here; it may have been measured.

{"smiles": "O=C(O)C(F)(F)F.[H][C@@]12CCN(C3CCCC3)C[C@]1(C(=O)NCc1cnc(C)cn1)CCO2", "A": 35.39, "B": -7.438}
{"smiles": "CCn1cc(CN2CCCn3nc(CCC(=O)NCCO)cc3C2)cn1", "A": -0.4914, "B": -4.039}
{"smiles": "COC1CCN(C(=O)c2ccc3ncsc3c2)CC1", "A": 11.93, "B": -36.46}
{"smiles": "Cc1ccc(C(=O)NS(=O)(=O)c2ccccc2Cl)c(=O)[nH]1", "A": -14.26}
{"smiles": "COCC1CN(C(=O)[C@H]2CCCO2)Cc2nnn(CC3CC3)c21", "stereo": "some centres not stated", "A": 2.51, "B": 6.948}
{"smiles": "Cc1ccccc1CN1CCC[C@H]1c1nc(-c2cncnc2N)no1", "A": -40.46, "B": 23.77}
{"smiles": "Cc1cc(N(C)C)nc(C2(C)CCCN2C(=O)c2cncnc2C)n1", "stereo": "configuration not stated", "A": -12.9, "B": -9.352}
{"smiles": "Cn1nc(C(C)(C)C)cc1NC(=O)Cn1ccccc1=O", "A": -17.91}
{"smiles": "Cl.O=C(c1ccnc(C2CCNCC2)c1)N1CCCC1", "A": -27.92, "B": -26.15}
{"smiles": "CSc1ccc(C(=O)C2CCCN(C(=O)Cn3cnnn3)C2)cc1", "stereo": "configuration not stated", "A": -22.83}
{"smiles": "Fc1cnc(N2CCCn3cnc(COc4cccnc4)c3C2)nc1.O=C(O)C(F)(F)F", "A": 9.371, "B": 18.56}
{"smiles": "CC(C)n1cc(CN2CCCN(C(=O)C(C)n3cccn3)CC2)cn1", "stereo": "configuration not stated", "A": -6.611, "B": 26.58}
{"smiles": "Cc1n[nH]c(C2CN(CC(=O)NCc3ccco3)CCO2)n1", "stereo": "configuration not stated", "A": 2.654, "B": -6.438}
{"smiles": "c1ccc(Cn2cccn2)c(CNCc2cnc(N3CCCC3)nc2)c1", "A": 10.24, "B": -0.5136}
{"smiles": "CN1C[C@@H](N)C[C@H]1C(=O)N1CCC(Cc2ccc(F)cc2)CC1", "A": -14.12, "B": -16.49}
{"smiles": "O=C(CN1CCCC1Cn1cccn1)NC1CCOCC1", "stereo": "configuration not stated", "A": -7.119}
{"smiles": "O=C(Nc1cccc(N2CCOCC2)c1)N[C@H](CO)c1ccccc1", "A": -0.9298, "B": -6.802}
{"smiles": "Cc1ccc(C(=O)N2CCOC3(CCCC3)C2)c(=O)[nH]1", "A": 6.585, "B": 8.654}
{"smiles": "Cc1nc(C)n(CC2CN(Cc3nc4ccccc4s3)CCO2)n1", "stereo": "configuration not stated", "A": -11.86, "B": -27.1}
{"smiles": "COCCNC(=O)Cn1c(-c2ccc(Cl)cc2)nc(C)c(CCO)c1=O", "A": 50.09, "B": 0.4502}
{"smiles": "Cc1nnc(NC(=O)NCc2ccc(N3CCOCC3)nc2)s1", "A": -2.104}
{"smiles": "CCc1ccc(-n2c(=O)[nH]c3nc(N4CCSCC4)ncc3c2=O)cc1", "A": -13.78, "B": -3.279}
{"smiles": "O=C(Cc1csc(-c2ccccc2)n1)N[C@@H](C(=O)O)c1ccccc1", "A": -5.79}
{"smiles": "CCc1ncc(CN(C)C(=O)Nc2cccnc2N2CCCC2)s1", "A": -33.76, "B": 32.69}
{"smiles": "CS(=O)(=O)NCc1cc2n(n1)CCCN(Cc1cc3ccccc3o1)C2", "A": 13.41}

Once more, the final 3:

SMILES	A	B
O=C(Cc1csc(-c2ccccc2)n1)N[C@@H](C(=O)O)c1ccccc1	-5.79%	-
CCc1ncc(CN(C)C(=O)Nc2cccnc2N2CCCC2)s1	-33.76%	32.69%
CS(=O)(=O)NCc1cc2n(n1)CCCN(Cc1cc3ccccc3o1)C2	13.41%	-